Measurements from publication PMC5050456.
These are yes or no findings as the source states them, for the method shown. Binding seen in cells or lysates may run through a third protein. Some binding calls cover weakened binding; strength is not graded here. One block for each binder: values may come before it.

How the values were obtained:
[1] = target: T1, Bcl-xL (rat (endogenous in spinal cord of SD rats)), P53563; assay: co-IP; about 100 ug mitochondrial fraction of rat spinal cord; precipitated with polyclonal rabbit anti-Bcl-xL antibody and protein A+G sepharose, 5 h at 4 °C; washed 6 times with TNE buffer (10 mM Tris-HCl pH 7.5, 1% NP-40, 0.15 M NaCl, 1 mM EDTA); blotted with anti-Bad and anti-Bcl-xL; rats treated with saline, HD, or HD and then BMSC transplantation; settings: remark: other sources report otherwise
T1 chain: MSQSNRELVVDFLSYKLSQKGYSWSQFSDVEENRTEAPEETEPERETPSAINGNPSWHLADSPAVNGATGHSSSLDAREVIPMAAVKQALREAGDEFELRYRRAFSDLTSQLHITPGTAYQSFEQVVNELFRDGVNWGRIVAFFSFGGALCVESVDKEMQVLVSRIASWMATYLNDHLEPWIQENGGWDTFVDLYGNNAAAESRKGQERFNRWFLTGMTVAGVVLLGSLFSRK

[2] = target: T2, Bcl-xL (in VSC4.1 cells) (not stated (endogenous in VSC4.1 cells)), P53563; assay: co-IP; VSC4.1 cells; Bad co-precipitated by anti-Bcl-xL antibody; cells treated with HD (25 mM), HD and then BMSC-CM, with or without the Akt inhibitor MK-2206; the methods describe the procedure only for spinal cord; settings: remark: other sources report otherwise
T2 chain: T1 chain

binding [1]: binds
B1: Bad, O35147 1-205 (protein)
chain: MGTPKQPSLAPAHALGLRKSDPGIRSLGSDAGGRRWRPAAQSMFQIPEFEPSEQEDASTTDRGLGPSLTEDQPGPYLAPGLLGSIVQQQPGQAANNSHHGGAGTMETRSRHSSYPAGTEEDEGMEEELSPFRGRSRSAPPNLWAAQRYGRELRRMSDEFEGSFKGLPRPKSAGTATQMRQSASWTRIIQSWWDRNLGKGGSTPSQ

binding [2]: binds
B2: Bad (in VSC4.1 cells), O35147 1-205 (protein)
chain: B1 chain
